The supplement of paper PMC8007513
Some of the results follow. Single values are uncertain, as repeats are few or missing.

What follows are compounds tested on Saccharomyces cerevisiae BY4743 (assay: growth (OD600) with compound + IPBC relative to untreated control; higher = less growth inhibition). Conditions: compound concentration: 133 uM; IPBC concentration: 0.5 ug/ml; 20 h.
Protocol: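 NMCCC compounds (133 uM) combined with IPBC (0.5 ug/ml) against Saccharomyces cerevisiae BY4743 in YPD, 96-well plates. Growth was read as OD600 at 20 h and expressed as % of the untreated control. Single pass.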

SMILES	growth [%]
Cc1nc2ccc(NC(=O)CCn3cncn3)cc2s1 + CCCCNC(=O)OCC#CI [3-iodo-2-propynyl butylcarbamate (IPBC)]	94.5
CN(C)CCSc1nnc2sc3ccccc3n12 + CCCCNC(=O)OCC#CI [3-iodo-2-propynyl butylcarbamate (IPBC)]	86.6
Cc1cccc(-c2csc(N)c2C(=O)OC(C)C)c1 + CCCCNC(=O)OCC#CI [3-iodo-2-propynyl butylcarbamate (IPBC)]	13
COc1cc(CNC(=O)c2ncoc2-c2cccs2)cc(OC)c1OC + CCCCNC(=O)OCC#CI [3-iodo-2-propynyl butylcarbamate (IPBC)]	86.9
Cc1cc(C)cc(-c2nnc(SCc3cc(C)on3)o2)c1 + CCCCNC(=O)OCC#CI [3-iodo-2-propynyl butylcarbamate (IPBC)]	85.3
CCOc1ccc(NC(=O)c2cc(CC)c(C)s2)cc1OC + CCCCNC(=O)OCC#CI [3-iodo-2-propynyl butylcarbamate (IPBC)]	91
CCN(CC)CCn1c2ccccc2c2nc(C)sc21 + CCCCNC(=O)OCC#CI [3-iodo-2-propynyl butylcarbamate (IPBC)]	92.1
CC(=O)NN1C(=O)c2ccccc2NC1c1cccnc1 (configuration not stated) + CCCCNC(=O)OCC#CI [3-iodo-2-propynyl butylcarbamate (IPBC)]	91.4
O=C(Cc1csc(NC(=O)NC2CCCC2)n1)Nc1ccc(Cl)c(Cl)c1 + CCCCNC(=O)OCC#CI [3-iodo-2-propynyl butylcarbamate (IPBC)]	112
CCOC(=O)N1CCN(C(=O)c2ccc(S(=O)(=O)N3CCCC(C)C3)cc2)CC1 (configuration not stated) + CCCCNC(=O)OCC#CI [3-iodo-2-propynyl butylcarbamate (IPBC)]	89.2
CCOC(=O)c1ccc(NC(NC(=O)OC)(c2ccccc2)C(F)(F)F)o1 (configuration not stated) + CCCCNC(=O)OCC#CI [3-iodo-2-propynyl butylcarbamate (IPBC)]	108
CN(CC1=C(C)ON=C1C)C/2=C(\Cl)C(=O)N(/N=C2)C3=CC=C(C=N3)C(F)(F)F + CCCCNC(=O)OCC#CI [3-iodo-2-propynyl butylcarbamate (IPBC)]	99.8
COC1=CC=C(NC(=O)\C2=C(/C)C(=O)OC23CCC(C)CC3)C=C1Cl (configuration not stated) + CCCCNC(=O)OCC#CI [3-iodo-2-propynyl butylcarbamate (IPBC)]	101
CCOC(=O)C1(C)\C=C(\NC2=CC=CC(=C2)C)C(=O)N1C3=CC=CC=C3 (configuration not stated) + CCCCNC(=O)OCC#CI [3-iodo-2-propynyl butylcarbamate (IPBC)]	87.5
COC(=O)C1C\C(=N/O1)C2=C[N](C)N=C2C (configuration not stated) + CCCCNC(=O)OCC#CI [3-iodo-2-propynyl butylcarbamate (IPBC)]	101
Cc1cc(C)nc(SCc2nnc(SCC(N)=O)n2-c2ccc(Cl)cc2)n1 + CCCCNC(=O)OCC#CI [3-iodo-2-propynyl butylcarbamate (IPBC)]	97.1
COC(=O)c1cc(S(=O)(=O)Nc2cc(C)cc(C)c2)cn1C + CCCCNC(=O)OCC#CI [3-iodo-2-propynyl butylcarbamate (IPBC)]	114
CC(C)[C@H](NS(=O)(=O)c1ccc2c(c1)OCCO2)C(=O)NC1CCCCCC1 + CCCCNC(=O)OCC#CI [3-iodo-2-propynyl butylcarbamate (IPBC)]	106
O=C(Nc1cccc(N2CCCS2(=O)=O)c1)C(=O)N[C@H](CO)Cc1ccccc1 + CCCCNC(=O)OCC#CI [3-iodo-2-propynyl butylcarbamate (IPBC)]	86
Cc1csc(SCC(=O)NC(C)C(c2ccccc2)N2CCOCC2)n1 (configuration not stated) + CCCCNC(=O)OCC#CI [3-iodo-2-propynyl butylcarbamate (IPBC)]	97.9
CCN(CC(=O)Nc1ccccc1C(F)(F)F)C(=O)CSCC(=O)Nc1cc(C)on1 + CCCCNC(=O)OCC#CI [3-iodo-2-propynyl butylcarbamate (IPBC)]	93.2
Cc1nc(-c2cccs2)c(CCC(=O)N2CCCC2)s1 + CCCCNC(=O)OCC#CI [3-iodo-2-propynyl butylcarbamate (IPBC)]	88.5

In another format: results already given.
Cc1nc2ccc(NC(=O)CCn3cncn3)cc2s1 + CCCCNC(=O)OCC#CI [3-iodo-2-propynyl butylcarbamate (IPBC)]
  growth [%]: 94.5
CCOC(=O)C1(C)\C=C(\NC2=CC=CC(=C2)C)C(=O)N1C3=CC=CC=C3 (configuration not stated) + CCCCNC(=O)OCC#CI [3-iodo-2-propynyl butylcarbamate (IPBC)]
  growth [%]: 87.5
